Measurements reported in article PMC6134199.
No constants are given. Whether binding was seen depends on the method and setting. Binding seen in cells or lysates may run through a third protein. Some binding calls cover weakened binding; strength is not graded here.

Protein sequences, listed by entry. Tags and fused reporters are not part of them.
UniProt P00579: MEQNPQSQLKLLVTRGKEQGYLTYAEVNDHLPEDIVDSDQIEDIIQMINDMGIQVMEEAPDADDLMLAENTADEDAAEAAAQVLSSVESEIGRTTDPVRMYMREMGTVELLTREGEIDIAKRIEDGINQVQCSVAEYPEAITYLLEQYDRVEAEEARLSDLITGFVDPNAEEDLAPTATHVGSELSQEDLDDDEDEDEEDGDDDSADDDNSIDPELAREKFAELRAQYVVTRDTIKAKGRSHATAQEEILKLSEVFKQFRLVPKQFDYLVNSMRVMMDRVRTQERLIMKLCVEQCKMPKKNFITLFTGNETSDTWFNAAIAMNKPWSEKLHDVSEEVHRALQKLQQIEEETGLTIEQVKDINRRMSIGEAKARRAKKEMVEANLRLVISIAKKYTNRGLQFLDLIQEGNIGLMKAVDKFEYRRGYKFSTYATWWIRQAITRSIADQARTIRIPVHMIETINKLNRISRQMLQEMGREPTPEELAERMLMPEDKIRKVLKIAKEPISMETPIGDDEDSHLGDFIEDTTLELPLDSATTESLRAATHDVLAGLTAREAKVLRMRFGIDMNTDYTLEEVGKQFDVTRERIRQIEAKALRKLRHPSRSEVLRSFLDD

Target: His-tagged RpoD sigma factor (E. coli K-12) (UniProt P00579)
Test: pull-down; His-tagged RpoD expressed in wild-type and arcA, mcbR, rcdA, sdiA or slyA deletion strains; lysate (50 mM Tris-HCl pH 8.0, 150 mM NaCl, 10% glycerol) applied to Ni-NTA agarose, washed, eluted with 200 mM imidazole; Rsd in the eluate detected by immunoblot with anti-Rsd antiserum

binding: binds
B1: anti-sigma factor Rsd (regulator of sigma D) (protein, UniProt P0AFX4 1-158)
chain: MLNQLDNLTERVRGSNKLVDRWLHVRKHLLVAYYNLVGIKPGKESYMRLNEKALDDFCQSLVDYLSAGHFSIYERILHKLEGNGQLARAAKIWPQLEANTQQIMDYYDSSLETAIDHDNYLEFQQVLSDIGEALEARFVLEDKLILLVLDAARVKHPA
